The record followed here is article PMC10185471.

Sequences of proteins named here, by UniProt entry; tags and fusion partners are left off. Residues count along the entry.
UniProt Q9Z2G6, residues 22-790: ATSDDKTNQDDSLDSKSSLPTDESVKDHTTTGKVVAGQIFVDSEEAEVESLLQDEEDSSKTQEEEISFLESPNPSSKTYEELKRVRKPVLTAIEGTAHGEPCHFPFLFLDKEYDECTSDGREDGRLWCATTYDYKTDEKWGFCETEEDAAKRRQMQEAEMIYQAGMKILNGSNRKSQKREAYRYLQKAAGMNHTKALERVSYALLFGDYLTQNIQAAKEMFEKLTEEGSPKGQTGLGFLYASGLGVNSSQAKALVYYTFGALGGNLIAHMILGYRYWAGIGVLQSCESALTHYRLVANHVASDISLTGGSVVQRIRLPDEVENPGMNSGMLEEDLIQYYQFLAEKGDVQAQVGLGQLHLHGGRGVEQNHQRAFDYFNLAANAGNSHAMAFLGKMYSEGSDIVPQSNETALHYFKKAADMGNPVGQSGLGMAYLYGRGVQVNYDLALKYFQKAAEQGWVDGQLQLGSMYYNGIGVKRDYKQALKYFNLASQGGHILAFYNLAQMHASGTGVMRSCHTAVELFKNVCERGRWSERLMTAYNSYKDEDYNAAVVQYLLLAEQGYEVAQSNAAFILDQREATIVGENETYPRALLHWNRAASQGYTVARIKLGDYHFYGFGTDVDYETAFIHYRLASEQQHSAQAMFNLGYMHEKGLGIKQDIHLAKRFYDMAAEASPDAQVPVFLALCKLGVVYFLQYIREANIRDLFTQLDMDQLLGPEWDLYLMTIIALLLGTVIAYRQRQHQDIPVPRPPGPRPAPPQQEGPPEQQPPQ

The target of this test is T1, STING-TurboID-V5 (UniProt Q3TBT3).
T1 sequence: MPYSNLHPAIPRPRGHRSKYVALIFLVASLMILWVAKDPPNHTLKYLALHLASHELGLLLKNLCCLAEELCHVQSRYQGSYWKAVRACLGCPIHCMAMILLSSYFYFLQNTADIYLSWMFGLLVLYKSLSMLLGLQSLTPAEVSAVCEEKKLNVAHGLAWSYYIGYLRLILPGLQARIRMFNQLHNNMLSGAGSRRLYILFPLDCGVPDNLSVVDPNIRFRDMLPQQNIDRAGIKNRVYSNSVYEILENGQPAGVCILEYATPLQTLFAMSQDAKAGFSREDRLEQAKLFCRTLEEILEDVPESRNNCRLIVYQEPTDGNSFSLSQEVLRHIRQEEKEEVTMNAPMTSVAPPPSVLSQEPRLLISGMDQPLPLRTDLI
As to the kind of experiment: proximity labelling; RAW 264.7 cells transfected with STING-TurboID-V5 (in the presence of H151), cGAMP for the indicated times, 50 µM biotin 10 min at 37 °C; streptavidin agarose, immunoblot. On the technique in general: A western blot detects proteins with antibodies after separation by electrophoresis.

These are yes or no findings as the source states them, for the method shown. Binding seen in cells or lysates may run through a third protein. Here binding means that the protein was enriched with, or labelled near, the bait; the list need not be complete. Where a sequence is shown, tags or fusion partners need not be part of it.

As for “SEL1L (suppressor of lin-12-like), endogenous, mouse (from UniProt Q9Z2G6 22-790)”, the binding entry is “binds”.
